Results deposited as PubChem BioAssay AID1508597 (Cure First, 2020).
In all, the deposit lists about 2,100 reagents; below is a part drawn at random. 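Calls flag viability under 80% in either arm, not effects specific to rucaparib; the reference for percent is not stated.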 Some reagents were tested in more than one well and are listed for each. Not given: the 100% reference.

Purpose: 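Survival screen with siRNA in ovarian cancer cells derived from patients, with or without rucaparib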 (primary screen)
Cells: human ovarian carcinoma lines grown from tumours: OCI-P5x (papillary serous) and OCI-C5x (clear cell)
Knock-down reagent: siRNA pool against human genes, 1.25 pmol siRNA per well
Timing: 72 h or 96 h, depending on the cell culture
Challenge: rucaparib 20 µM (about IC30) or vehicle, present until read-out
Detection: 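ATP luminescence measured at 72 or 96 h according to the culture, then normalised and expressed as percent viability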
Scale: viability, normalised: higher = more viable cells remaining
Rule for the call: 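Active when normalised viability falls below 80 percent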
Calls: active = viability under 80%; inactive = viability 80% or more

gene symbol	rucaparib or vehicle	cell line	technical replicate	viability, normalised (%)	Outcome
LEF1	Rucaparib	OCI-C5x (clear cell)	1	46.8	active
LEF1	Rucaparib	OCI-C5x (clear cell)	2	33.3	active
LEF1	Rucaparib	OCI-C5x (clear cell)	3	43.8	active
LEF1	Rucaparib	OCI-P5x (serous)	1	56.4	active
LEF1	Rucaparib	OCI-P5x (serous)	2	55.8	active
LEF1	Rucaparib	OCI-P5x (serous)	3	43.5	active
LEF1	Vehicle	OCI-C5x (clear cell)	1	47.7	active
LEF1	Vehicle	OCI-C5x (clear cell)	2	45.8	active
LEF1	Vehicle	OCI-C5x (clear cell)	3	63.1	active
LEF1	Vehicle	OCI-P5x (serous)	1	46.8	active
LEF1	Vehicle	OCI-P5x (serous)	2	65.5	active
LEF1	Vehicle	OCI-P5x (serous)	3	77.3	active
ATM	Rucaparib	OCI-C5x (clear cell)	1	56.4	active
ATM	Rucaparib	OCI-C5x (clear cell)	1	74.8	active
ATM	Rucaparib	OCI-C5x (clear cell)	2	66.4	active
ATM	Rucaparib	OCI-C5x (clear cell)	2	72.2	active
ATM	Rucaparib	OCI-C5x (clear cell)	3	78.9	active
ATM	Rucaparib	OCI-C5x (clear cell)	3	53.9	active
ATM	Rucaparib	OCI-P5x (serous)	1	84.6	inactive
ATM	Rucaparib	OCI-P5x (serous)	1	133	inactive
ATM	Rucaparib	OCI-P5x (serous)	2	117	inactive
ATM	Rucaparib	OCI-P5x (serous)	2	103	inactive
ATM	Rucaparib	OCI-P5x (serous)	3	90.4	inactive
ATM	Rucaparib	OCI-P5x (serous)	3	122	inactive
ATM	Vehicle	OCI-C5x (clear cell)	1	41.7	active
ATM	Vehicle	OCI-C5x (clear cell)	1	53.2	active
ATM	Vehicle	OCI-C5x (clear cell)	2	71.1	active
ATM	Vehicle	OCI-C5x (clear cell)	2	63	active
ATM	Vehicle	OCI-C5x (clear cell)	3	51.4	active
ATM	Vehicle	OCI-C5x (clear cell)	3	49.7	active
ATM	Vehicle	OCI-P5x (serous)	1	103	inactive
ATM	Vehicle	OCI-P5x (serous)	1	75	active
ATM	Vehicle	OCI-P5x (serous)	2	93.1	inactive
ATM	Vehicle	OCI-P5x (serous)	2	73.7	active
ATM	Vehicle	OCI-P5x (serous)	3	75	active
ATM	Vehicle	OCI-P5x (serous)	3	90.2	inactive
PLCB1	Rucaparib	OCI-C5x (clear cell)	1	54.1	active
PLCB1	Rucaparib	OCI-C5x (clear cell)	2	60.1	active
PLCB1	Rucaparib	OCI-C5x (clear cell)	3	60.9	active
PLCB1	Rucaparib	OCI-P5x (serous)	1	54.3	active
PLCB1	Rucaparib	OCI-P5x (serous)	2	67	active
PLCB1	Rucaparib	OCI-P5x (serous)	3	49.8	active
PLCB1	Vehicle	OCI-C5x (clear cell)	1	45.9	active
PLCB1	Vehicle	OCI-C5x (clear cell)	2	59.5	active
PLCB1	Vehicle	OCI-C5x (clear cell)	3	52.4	active
PLCB1	Vehicle	OCI-P5x (serous)	1	59.8	active
PLCB1	Vehicle	OCI-P5x (serous)	2	61.2	active
PLCB1	Vehicle	OCI-P5x (serous)	3	70.6	active
DDX50	Rucaparib	OCI-C5x (clear cell)	1	42.9	active
DDX50	Rucaparib	OCI-C5x (clear cell)	2	35.7	active
DDX50	Rucaparib	OCI-C5x (clear cell)	3	31.2	active
DDX50	Rucaparib	OCI-P5x (serous)	1	68.4	active
DDX50	Rucaparib	OCI-P5x (serous)	2	59.5	active
DDX50	Rucaparib	OCI-P5x (serous)	3	62.9	active
DDX50	Vehicle	OCI-C5x (clear cell)	1	40	active
DDX50	Vehicle	OCI-C5x (clear cell)	2	44.1	active
DDX50	Vehicle	OCI-C5x (clear cell)	3	39	active
DDX50	Vehicle	OCI-P5x (serous)	1	70.4	active
DDX50	Vehicle	OCI-P5x (serous)	2	75.7	active
DDX50	Vehicle	OCI-P5x (serous)	3	79.1	active
